Experimental data: article PMC10792245
These are yes or no findings as the source states them, for the method shown. Binding seen in cells or lysates may run through a third protein. Some results given as binding are weak or reduced against the parent protein; the word gives no strength. Sequences can lack the tags named with a protein.

T1: Flag-IRF7 (interferon regulatory factor 7) (UniProt Q92985)
T1 sequence: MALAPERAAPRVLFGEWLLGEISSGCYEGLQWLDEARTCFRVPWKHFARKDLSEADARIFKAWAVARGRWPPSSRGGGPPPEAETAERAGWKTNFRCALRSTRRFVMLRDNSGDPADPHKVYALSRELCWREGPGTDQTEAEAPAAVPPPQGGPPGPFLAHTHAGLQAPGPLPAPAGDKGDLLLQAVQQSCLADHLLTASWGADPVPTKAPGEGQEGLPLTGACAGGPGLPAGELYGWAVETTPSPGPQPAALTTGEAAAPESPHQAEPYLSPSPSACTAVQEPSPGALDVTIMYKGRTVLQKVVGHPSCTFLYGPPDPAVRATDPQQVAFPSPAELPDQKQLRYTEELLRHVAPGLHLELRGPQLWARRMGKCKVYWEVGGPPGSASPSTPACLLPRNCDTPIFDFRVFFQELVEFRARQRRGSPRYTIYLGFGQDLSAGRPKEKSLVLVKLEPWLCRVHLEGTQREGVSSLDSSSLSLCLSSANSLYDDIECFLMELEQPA


Target: T1, Flag-IRF7 (interferon regulatory factor 7)
Assay: co-IP; 293T cells transfected with Myc-AIP and/or Flag-IRF7, uninfected or infected with SeV (or transfected with poly(I:C)); lysed in RIPA buffer, 400 ug lysate incubated overnight with mouse anti-Flag antibody, protein A/G PLUS-agarose, Western blot

| binding | Binder |
| --- | --- |
| binds | Myc-AIP (aryl hydrocarbon receptor interacting protein), wildtype (protein, UniProt O00170 1-330) MADIIARLREDGIQKRVIQEGRGELPDFQDGTKATFHYRTLHSDDEGTVLDDSRARGKPMELIIGKKFKLPVWETIVCTMREGEIAQFLCDIKHVVLYPLVAKSLRNIAVGKDPLEGQRHCCGVAQMREHSSLGHADLDALQQNPQPLIFHMEMLKVESPGTYQQDPWAMTDEEKAKAVPLIHQEGNRLYREGHVKEAAAKYYDAIACLKNLQMKEQPGSPEWIQLDQQITPLLLNYCQCKLVVEEYYEVLDHCSSILNKYDDNVKAYFKRGKAHAAVWNAQEAQADFAKVLELDPALAPVVSRELRALEARIRQKDEEDKARFRGIFSH |
| binds | Myc-AIP T40E (phosphomimetic mutant) (protein, UniProt O00170 1-330) MADIIARLREDGIQKRVIQEGRGELPDFQDGTKATFHYRELHSDDEGTVLDDSRARGKPMELIIGKKFKLPVWETIVCTMREGEIAQFLCDIKHVVLYPLVAKSLRNIAVGKDPLEGQRHCCGVAQMREHSSLGHADLDALQQNPQPLIFHMEMLKVESPGTYQQDPWAMTDEEKAKAVPLIHQEGNRLYREGHVKEAAAKYYDAIACLKNLQMKEQPGSPEWIQLDQQITPLLLNYCQCKLVVEEYYEVLDHCSSILNKYDDNVKAYFKRGKAHAAVWNAQEAQADFAKVLELDPALAPVVSRELRALEARIRQKDEEDKARFRGIFSH |
